These are yes or no findings as the source states them, for the method shown. In cells and extracts the contact can be indirect. Binding calls can cover weak binding; strength is not graded here. Sequences can lack the tags named with a protein.
Target: T1, MA-EcMurJ(2-511)-3xFLAG (E. coli lipid II flippase MurJ) (E. coli (JCM20135)) (UniProt P0AF16)
T1 sequence: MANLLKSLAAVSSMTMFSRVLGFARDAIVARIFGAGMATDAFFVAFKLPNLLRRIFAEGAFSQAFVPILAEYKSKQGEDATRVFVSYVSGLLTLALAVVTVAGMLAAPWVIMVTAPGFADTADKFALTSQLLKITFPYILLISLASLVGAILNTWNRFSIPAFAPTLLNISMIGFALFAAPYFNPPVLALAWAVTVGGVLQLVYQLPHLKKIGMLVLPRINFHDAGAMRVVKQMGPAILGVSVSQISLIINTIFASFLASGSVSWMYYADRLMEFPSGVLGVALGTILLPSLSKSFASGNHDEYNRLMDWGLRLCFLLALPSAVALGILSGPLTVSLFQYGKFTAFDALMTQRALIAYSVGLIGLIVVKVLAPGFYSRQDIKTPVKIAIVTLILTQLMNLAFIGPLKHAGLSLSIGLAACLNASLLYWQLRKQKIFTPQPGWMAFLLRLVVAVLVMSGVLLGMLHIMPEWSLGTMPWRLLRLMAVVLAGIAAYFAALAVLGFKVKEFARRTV
Experiment: cryo-EM structure

## His10-Sgl^PP7 (single-gene lysis protein of Pseudomonas aeruginosa phage PP7)
  binding: binds
